This passage reports binding results from PMC4074033.

The chains behind the UniProt entries cited, without tags or fusion partners. Where a name states a change or a piece, a line headed by the entry shows the natural chain unless it says otherwise. Residues count along the entry.
UniProt O96017: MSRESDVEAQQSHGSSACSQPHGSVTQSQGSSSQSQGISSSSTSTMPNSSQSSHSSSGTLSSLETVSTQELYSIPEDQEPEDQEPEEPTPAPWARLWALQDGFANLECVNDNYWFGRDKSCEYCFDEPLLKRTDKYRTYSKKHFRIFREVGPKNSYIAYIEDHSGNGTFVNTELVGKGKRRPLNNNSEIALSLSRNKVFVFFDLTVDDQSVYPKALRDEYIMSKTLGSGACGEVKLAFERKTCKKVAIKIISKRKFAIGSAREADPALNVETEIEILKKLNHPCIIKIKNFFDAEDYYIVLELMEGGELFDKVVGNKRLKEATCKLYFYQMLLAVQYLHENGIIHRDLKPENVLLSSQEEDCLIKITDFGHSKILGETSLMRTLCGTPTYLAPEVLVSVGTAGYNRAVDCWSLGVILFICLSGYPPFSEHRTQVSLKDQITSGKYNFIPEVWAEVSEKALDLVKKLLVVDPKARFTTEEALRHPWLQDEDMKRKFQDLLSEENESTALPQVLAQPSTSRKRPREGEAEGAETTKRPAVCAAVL
GST-Chk2 truncation, amino acids 207 to 457 (carboxy-terminal region): residues 207-457 of O96017
UniProt Q9QR71: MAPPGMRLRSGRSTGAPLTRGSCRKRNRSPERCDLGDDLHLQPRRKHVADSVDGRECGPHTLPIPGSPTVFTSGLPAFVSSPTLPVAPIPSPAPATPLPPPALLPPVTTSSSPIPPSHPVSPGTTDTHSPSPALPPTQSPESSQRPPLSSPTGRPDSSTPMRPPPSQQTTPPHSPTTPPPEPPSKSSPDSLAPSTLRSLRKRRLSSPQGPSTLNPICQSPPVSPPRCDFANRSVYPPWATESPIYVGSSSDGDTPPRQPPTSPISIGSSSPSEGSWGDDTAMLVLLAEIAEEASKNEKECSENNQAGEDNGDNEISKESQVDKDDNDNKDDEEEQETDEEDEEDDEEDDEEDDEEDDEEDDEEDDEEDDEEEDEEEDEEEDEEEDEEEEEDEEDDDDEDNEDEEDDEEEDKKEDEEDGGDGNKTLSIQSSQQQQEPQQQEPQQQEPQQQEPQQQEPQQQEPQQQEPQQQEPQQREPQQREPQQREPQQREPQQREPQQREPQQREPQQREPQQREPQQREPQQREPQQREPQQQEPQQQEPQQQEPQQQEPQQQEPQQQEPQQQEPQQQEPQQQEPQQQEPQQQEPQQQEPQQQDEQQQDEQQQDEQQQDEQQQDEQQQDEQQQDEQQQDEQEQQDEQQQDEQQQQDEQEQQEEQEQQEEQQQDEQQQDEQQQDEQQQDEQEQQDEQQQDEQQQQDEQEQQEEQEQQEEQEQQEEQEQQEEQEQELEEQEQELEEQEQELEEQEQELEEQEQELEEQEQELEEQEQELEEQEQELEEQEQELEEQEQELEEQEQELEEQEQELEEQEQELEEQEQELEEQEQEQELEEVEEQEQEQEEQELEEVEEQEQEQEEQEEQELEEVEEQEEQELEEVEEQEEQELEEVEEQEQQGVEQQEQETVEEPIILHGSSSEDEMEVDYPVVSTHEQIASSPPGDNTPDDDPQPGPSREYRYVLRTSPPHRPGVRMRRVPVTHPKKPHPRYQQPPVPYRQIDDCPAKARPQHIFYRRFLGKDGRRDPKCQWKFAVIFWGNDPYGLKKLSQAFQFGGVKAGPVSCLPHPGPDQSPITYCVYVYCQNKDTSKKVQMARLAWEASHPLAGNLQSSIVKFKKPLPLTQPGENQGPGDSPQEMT

No constants are given. Whether binding was seen depends on the method and setting. Binding seen in cells or lysates may run through a third protein. Some entries that bind do so weakly or less than the wild type.

Assay [1] addresses GST-Chk2 truncation, amino acids 207 to 457 (carboxy-terminal region) (UniProt O96017). Briefly: pull-down; GST-Chk2 truncations on glutathione-sepharose beads; [35S]-labelled in vitro translated LANA, precleared; binding buffer 1x PBS, 0.1% NP-40, 0.5 mM DTT, 10% glycerol; 24 hours at 4°C; SDS-PAGE; only the target purified.
Assay [2] shares this target. Description: pull-down; GST-Chk2 truncations on glutathione-sepharose beads; nuclear extract of KSHV-positive BC3 cells, precleared with beads and GST-bound beads; overnight at 4°C; LANA detected by immunoblotting; only the target purified. A general note: A western blot detects proteins with antibodies after separation by electrophoresis.
Assay [3] addresses Myc-tagged latency associated nuclear antigen (LANA) of KSHV, from pA3M-LANA (Kaposi's sarcoma-associated herpesvirus (KSHV, human herpesvirus-8)) (UniProt Q9QR71). Briefly: co-IP; BJAB and HEK-293 cells co-transfected with pCDNA3.1-HAChk2 and pA3M-LANA; lysis in RIPA buffer (0.5% NP-40, 10 mM Tris pH 7.5, 2 mM EDTA, 150 mM NaCl); immunoprecipitation with anti-Myc, blot with anti-HA.

Turning to “in vitro translated [35S]-labelled LANA, from the full-length pA3M-LANA clone (from UniProt Q9QR71 1-1129)”, in assay [1], the binding result was “no binding”. Regarding “LANA in nuclear extract of KSHV-positive BC3 cells (from UniProt Q9QR71 1-1129)”, the binding entry in assay [2] was “no binding”. “HA-tagged Chk2, from pCDNA3.1-HAChk2 (from UniProt O96017 1-543)”: the binding result in assay [3] was “binds”.
